Data from article PMC7862700.
The list shows a part of the results, in another mix than the full data. At the low end of the ranking the order means little.

Columns and labels:
Assay in all cases: DAPPL (digital affinity profiling via proximity ligation, sequencing)
Settings in all cases: 10 mM Tris-HCl pH 7.5, 50 mM NaCl, 1 mM DTT, 4% glycerol, room temperature, 30 min; GST-TFs on glutathione beads, 16-mer random dsDNA library, 0.1% …; high values mean tight binding; double strand, one strand shown; scale: fold enrichment (6-mer frequency, TF over GST control)
[1] = target: T1, ELK1 (UniProt P19419)
T1 sequence: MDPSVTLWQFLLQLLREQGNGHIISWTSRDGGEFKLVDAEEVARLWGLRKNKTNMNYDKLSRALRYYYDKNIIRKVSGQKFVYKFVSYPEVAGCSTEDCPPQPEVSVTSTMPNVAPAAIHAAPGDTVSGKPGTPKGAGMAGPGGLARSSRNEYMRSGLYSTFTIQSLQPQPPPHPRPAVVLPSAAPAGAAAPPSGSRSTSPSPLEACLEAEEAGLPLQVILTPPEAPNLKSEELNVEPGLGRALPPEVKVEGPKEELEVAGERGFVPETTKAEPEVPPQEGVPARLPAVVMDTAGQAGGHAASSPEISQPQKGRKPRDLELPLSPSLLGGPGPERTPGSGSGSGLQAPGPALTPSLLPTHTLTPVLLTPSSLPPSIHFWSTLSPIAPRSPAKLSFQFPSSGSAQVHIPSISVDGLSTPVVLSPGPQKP

[2] = target: T2, ELK3 (UniProt P41970)
T2 sequence: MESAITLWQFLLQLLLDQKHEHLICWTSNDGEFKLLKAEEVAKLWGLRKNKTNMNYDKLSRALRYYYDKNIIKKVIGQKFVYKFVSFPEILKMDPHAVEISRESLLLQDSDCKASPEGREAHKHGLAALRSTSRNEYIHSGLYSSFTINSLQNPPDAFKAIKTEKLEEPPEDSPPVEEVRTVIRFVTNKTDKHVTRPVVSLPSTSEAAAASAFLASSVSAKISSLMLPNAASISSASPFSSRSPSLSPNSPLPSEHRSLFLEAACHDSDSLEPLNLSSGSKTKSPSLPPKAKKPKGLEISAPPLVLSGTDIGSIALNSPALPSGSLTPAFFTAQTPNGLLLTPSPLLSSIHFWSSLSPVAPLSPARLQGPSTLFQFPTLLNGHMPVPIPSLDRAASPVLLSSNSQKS

[3] = target: T3, SPIC (UniProt Q8N5J4)
T3 sequence: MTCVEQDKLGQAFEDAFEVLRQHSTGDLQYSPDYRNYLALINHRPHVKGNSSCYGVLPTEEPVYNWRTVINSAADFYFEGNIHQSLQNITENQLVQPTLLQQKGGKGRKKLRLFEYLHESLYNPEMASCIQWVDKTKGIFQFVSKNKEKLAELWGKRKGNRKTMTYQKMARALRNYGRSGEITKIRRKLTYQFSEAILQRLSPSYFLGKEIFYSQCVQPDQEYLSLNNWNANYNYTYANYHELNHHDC

[4] = target: T4, ETS2 (UniProt P15036)
T4 sequence: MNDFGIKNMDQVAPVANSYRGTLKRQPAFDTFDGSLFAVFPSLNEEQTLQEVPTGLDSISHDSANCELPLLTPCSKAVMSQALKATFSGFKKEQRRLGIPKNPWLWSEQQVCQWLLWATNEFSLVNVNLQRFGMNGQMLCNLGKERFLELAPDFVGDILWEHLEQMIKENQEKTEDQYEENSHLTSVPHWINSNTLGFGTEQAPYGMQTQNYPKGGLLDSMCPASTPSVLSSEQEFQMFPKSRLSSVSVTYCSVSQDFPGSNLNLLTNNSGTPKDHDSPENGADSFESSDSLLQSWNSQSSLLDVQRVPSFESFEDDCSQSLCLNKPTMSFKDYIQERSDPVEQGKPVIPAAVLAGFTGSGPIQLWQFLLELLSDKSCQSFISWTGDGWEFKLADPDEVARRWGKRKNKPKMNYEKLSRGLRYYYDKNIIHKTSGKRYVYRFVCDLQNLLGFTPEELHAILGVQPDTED

[5] = target: T5, ETV3 (UniProt P41162-2)
T5 sequence: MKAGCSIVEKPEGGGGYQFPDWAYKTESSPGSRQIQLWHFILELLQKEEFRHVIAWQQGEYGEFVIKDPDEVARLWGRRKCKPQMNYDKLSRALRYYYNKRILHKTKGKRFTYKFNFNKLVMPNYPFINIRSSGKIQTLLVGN

Sequence	binding signal [1]	binding signal [2]	binding signal [3]	binding signal [4]	binding signal [5]
GGCGGA	0.367	0.387	0.437	0.374	0.374
CATCGG	0.663	0.662	0.675	0.653	0.657
GGATTG	0.829	0.7	0.883	0.884	0.797
GTAAGA	0.793	0.87	0.891	0.77	0.742
GTGGGC	0.703	0.79	0.812	0.797	0.751
ACGCAT	0.763	0.817	0.84	0.789	0.809
TAGACG	0.739	0.711	0.709	0.758	0.728
GGTACC	0.785	0.737	0.685	0.756	0.819
ATCGGG	0.472	0.5	0.482	0.469	0.494
GAGTCC	0.406	0.426	0.387	0.391	0.398
TAGAGT	0.813	0.839	0.659	0.769	0.778
TGGAGT	0.516	0.514	0.524	0.555	0.516
AGCCGG	0.625	0.593	0.559	0.586	0.609
GATGAG	0.805	0.798	0.917	0.853	0.841
GCATCA	0.801	0.801	0.802	0.734	0.723
AGGTTA	0.816	0.799	0.765	0.816	0.817
CGAGAG	0.426	0.417	0.338	0.385	0.4
CAGTAC	0.841	0.792	0.793	0.759	0.805
GGGCCC	0.801	0.711	0.807	0.824	0.822
CAGGCC	0.723	0.778	0.747	0.746	0.697
CAGTTG	0.484	0.474	0.52	0.447	0.491

A second format for some results above:

| Sequence | binding signal [1] | binding signal [2] | binding signal [3] | binding signal [4] | binding signal [5] |
| --- | --- | --- | --- | --- | --- |
| GGCGGA | 0.367 | 0.387 | 0.437 | 0.374 | 0.374 |
| CAGGCC | 0.723 | 0.778 | 0.747 | 0.746 | 0.697 |

(list continues)

Sequence	binding signal [1]	binding signal [2]	binding signal [3]	binding signal [4]	binding signal [5]
GACACA	0.955	0.922	0.844	0.962	0.888
GTGCGG	0.675	0.556	0.588	0.643	0.715
GGCGGG	0.307	0.321	0.295	0.299	0.307
GGCCAT	0.889	0.847	0.842	0.762	0.875
TGGGTC	0.705	0.64	0.652	0.658	0.615
GATTGT	0.878	0.876	0.787	0.845	0.849
TCGGCA	0.722	0.712	0.777	0.699	0.705
GCTCGG	0.77	0.736	0.817	0.708	0.782
CCGAGG	0.744	0.737	0.58	0.725	0.74
GAGAGG	0.535	0.532	0.591	0.487	0.471
TGGAGC	0.667	0.593	0.649	0.567	0.592
ACGGCG	0.827	0.806	0.745	0.786	0.889
GCCGGC	0.835	0.844	0.866	0.832	0.795
TGCGAG	0.967	0.921	0.944	0.96	0.893
GCAGTA	0.903	0.968	0.815	0.898	0.82
GGCCCG	0.794	0.749	0.75	0.795	0.751
TGTGAG	0.363	0.313	0.367	0.34	0.337
GAATCG	0.595	0.644	0.59	0.65	0.716
TGAGCA	0.875	0.772	0.91	0.876	0.829
GTACGT	0.865	0.955	0.95	0.877	0.828
GTCGAA	0.629	0.632	0.598	0.645	0.605
